Source: US11297835B2, “Aqueous compositions of perillic acid compounds” (B.R.A.I.N. BIOTECHNOLOGY RESEARCH AND INFORMATION NETWORK AG, priority 2016, dated 2022)
At least one compound was matched to its structure with a doubt left.

Experiment: Stability investigation of sodium perillate on storage (TLC, GC, HPLC recovery)
Format: physicochemical
Procedure: Sodium perillate was prepared by adding a defined volume of a 0.1 M sodium hydroxide (NaOH) solution to perillic acid to give an aqueous solution of pH 7.0. The water was removed by evaporation resulting in a colorless solid. In order to investigate the stability of sodium perillate, the compound was stored for 12 months at 4° C., 22-25° C. (resemble room temperature) and 50° C. At certain time intervals all samples were examined and evaluated qualitatively using thin layer chromatography and quantitatively using gas and liquid chromatography. The results were compared to the stability of R perillic acid. […] These experiments highlight the long-term stability of sodium perillate.
Table 5 Recovery of sodium perillate measured by liquid chromatography (HPLC). Column: Phenomenex Luna 018. Method: 70% acetonitrile and 30% water, isocratic. Recovery values were calculated according to a calibration curve performed with sodium perillate in the range of 0.05-2 mM in acetonitrile. Detection was carried out by UV-light (DAD-detector) at 217 and 240 nm.

C=C(C)C1CC=C(C(=O)[O-])CC1.[Na+] (stereo not drawn) [Sodium perillate, sodium perillate]
Recovery (storage 4° C., T2 months): 99.7%
Recovery (storage 4° C., T4 months): 99.2%
Recovery (storage 4° C., T8 months): 99.2%
Recovery (storage 4° C., T12 months): 99.4%
Recovery (storage 4° C., Tstart): 99.6%
Recovery (storage 22-25° C. (RT), T2 months): 99.1%
Recovery (storage 22-25° C. (RT), T4 months): 99.5%
Recovery (storage 22-25° C. (RT), T8 months): 99.7%
Recovery (storage 22-25° C. (RT), T12 months): 99.3%
Recovery (storage 22-25° C. (RT), Tstart): 99.3%
Recovery (storage 50° C., T2 months): 99.4%
Recovery (storage 50° C., T4 months): 99.2%
Recovery (storage 50° C., T8 months): 99.2%
Recovery (storage 50° C., T12 months): 99.3%
Recovery (storage 50° C., Tstart): 99.3%
